These results are taken from PMC9273970, “Mambalgin-2 Inhibits Lung Adenocarcinoma Growth and Migration by Selective Interaction With ASIC1/α-ENaC/γ-ENaC Heterotrimer” (Frontiers in Oncology, 2022).

These are yes or no findings as the source states them, for the method shown. Binding seen in cells or lysates may run through a third protein. Some results given as binding are weak or reduced against the parent protein; the word gives no strength.

In this experiment the target is T1, recombinant mambalgin-2 from Dendroaspis polylepis (Dendroaspis polylepis) (UniProt P0DKS3).
T1 sequence: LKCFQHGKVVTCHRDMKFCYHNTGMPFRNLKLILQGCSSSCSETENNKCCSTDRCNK
As to the kind of experiment: pull-down; mambalgin-2 (1 mg/ml) coupled to NHS-activated Sepharose 4 Fast Flow; membrane fraction of A549 cells solubilized in 2% Triton X-100, diluted 10 times with TBS pH 8.0, 16 h at 4°C; washes incl. TBS + 1 M NaCl + 0.5% Triton X-100; elution 200 mM glycine pH 2.6; Western blot; only the target purified.

B1: γ-ENaC subunit (epithelial Na+ channel gamma) (protein, UniProt P51170 1-649)
chain: MAPGEKIKAKIKKNLPVTGPQAPTIKELMRWYCLNTNTHGCRRIVVSRGRLRRLLWIGFTLTAVALILWQCALLVFSFYTVSVSIKVHFRKLDFPAVTICNINPYKYSTVRHLLADLEQETREALKSLYGFPESRKRREAESWNSVSEGKQPRFSHRIPLLIFDQDEKGKARDFFTGRKRKVGGSIIHKASNVMHIESKQVVGFQLCSNDTSDCATYTFSSGINAIQEWYKLHYMNIMAQVPLEKKINMSYSAEELLVTCFFDGVSCDARNFTLFHHPMHGNCYTFNNRENETILSTSMGGSEYGLQVILYINEEEYNPFLVSSTGAKVIIHRQDEYPFVEDVGTEIETAMVTSIGMHLTESFKLSEPYSQCTEDGSDVPIRNIYNAAYSLQICLHSCFQTKMVEKCGCAQYSQPLPPAANYCNYQQHPNWMYCYYQLHRAFVQEELGCQSVCKEACSFKEWTLTTSLAQWPSVVSEKWLLPVLTWDQGRQVNKKLNKTDLAKLLIFYKDLNQRSIMESPANSIEMLLSNFGGQLGLWMSCSVVCVIEIIEVFFIDFFSIIARRQWQKAKEWWAWKQAPPCPEAPRSPQGQDNPALDIDDDLPTFNSALHLPPALGTQVPGTPPPKYNTLRLERAFSNQLTDTQMLDEL
As to B1, the binding result is “binds”.

B2: α-ENaC subunit (epithelial Na+ channel alpha) (protein, UniProt P37088 1-669)
chain: MEGNKLEEQDSSPPQSTPGLMKGNKREEQGLGPEPAAPQQPTAEEEALIEFHRSYRELFEFFCNNTTIHGAIRLVCSQHNRMKTAFWAVLWLCTFGMMYWQFGLLFGEYFSYPVSLNINLNSDKLVFPAVTICTLNPYRYPEIKEELEELDRITEQTLFDLYKYSSFTTLVAGSRSRRDLRGTLPHPLQRLRVPPPPHGARRARSVASSLRDNNPQVDWKDWKIGFQLCNQNKSDCFYQTYSSGVDAVREWYRFHYINILSRLPETLPSLEEDTLGNFIFACRFNQVSCNQANYSHFHHPMYGNCYTFNDKNNSNLWMSSMPGINNGLSLMLRAEQNDFIPLLSTVTGARVMVHGQDEPAFMDDGGFNLRPGVETSISMRKETLDRLGGDYGDCTKNGSDVPVENLYPSKYTQQVCIHSCFQESMIKECGCAYIFYPRPQNVEYCDYRKHSSWGYCYYKLQVDFSSDHLGCFTKCRKPCSVTSYQLSAGYSRWPSVTSQEWVFQMLSRQNNYTVNNKRNGVAKVNIFFKELNYKTNSESPSVTMVTLLSNLGSQWSLWFGSSVLSVVEMAELVFDLLVIMFLMLLRRFRSRYWSPGRGGRGAQEVASTLASSPPSHFCPHPMSLSLSQPGPAPSPALTAPPPAYATLGPRPSPGGSAGASSSTCPLGGP
Take B2: the binding entry was “binds”.
